Like-named read-outs stand apart in the source and are kept apart here. Results are given in words; binding and its absence hold for the method and conditions named. Binding seen in cells or lysates may run through a third protein. These calls come from enrichment with a bait or labelling near it, and not all partners need be listed. For some assays here: No binding means not detected with the bait. For some assays here: Tags and fused reporters may be left off the sequences shown. Each block holds one molecule with its values, some of them ahead of it.
Tests used:
[1] = molecular target: T1, WT-APX (murine wild-type TTP fused N-terminally to APEX2) (mouse) (UniProt P22893); experiment: proximity labelling
T1 sequence: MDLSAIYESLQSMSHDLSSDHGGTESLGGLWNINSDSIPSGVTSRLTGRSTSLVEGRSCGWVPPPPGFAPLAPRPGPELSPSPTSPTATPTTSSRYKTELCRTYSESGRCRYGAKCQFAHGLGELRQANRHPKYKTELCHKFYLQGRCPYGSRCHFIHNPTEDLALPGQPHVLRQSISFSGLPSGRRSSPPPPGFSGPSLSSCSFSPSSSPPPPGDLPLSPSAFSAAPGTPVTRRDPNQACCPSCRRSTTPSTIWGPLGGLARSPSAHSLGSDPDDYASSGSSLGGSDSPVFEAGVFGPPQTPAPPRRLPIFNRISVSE

The chains behind the UniProt entries cited, without tags or fusion partners.
UniProt Q96QE3: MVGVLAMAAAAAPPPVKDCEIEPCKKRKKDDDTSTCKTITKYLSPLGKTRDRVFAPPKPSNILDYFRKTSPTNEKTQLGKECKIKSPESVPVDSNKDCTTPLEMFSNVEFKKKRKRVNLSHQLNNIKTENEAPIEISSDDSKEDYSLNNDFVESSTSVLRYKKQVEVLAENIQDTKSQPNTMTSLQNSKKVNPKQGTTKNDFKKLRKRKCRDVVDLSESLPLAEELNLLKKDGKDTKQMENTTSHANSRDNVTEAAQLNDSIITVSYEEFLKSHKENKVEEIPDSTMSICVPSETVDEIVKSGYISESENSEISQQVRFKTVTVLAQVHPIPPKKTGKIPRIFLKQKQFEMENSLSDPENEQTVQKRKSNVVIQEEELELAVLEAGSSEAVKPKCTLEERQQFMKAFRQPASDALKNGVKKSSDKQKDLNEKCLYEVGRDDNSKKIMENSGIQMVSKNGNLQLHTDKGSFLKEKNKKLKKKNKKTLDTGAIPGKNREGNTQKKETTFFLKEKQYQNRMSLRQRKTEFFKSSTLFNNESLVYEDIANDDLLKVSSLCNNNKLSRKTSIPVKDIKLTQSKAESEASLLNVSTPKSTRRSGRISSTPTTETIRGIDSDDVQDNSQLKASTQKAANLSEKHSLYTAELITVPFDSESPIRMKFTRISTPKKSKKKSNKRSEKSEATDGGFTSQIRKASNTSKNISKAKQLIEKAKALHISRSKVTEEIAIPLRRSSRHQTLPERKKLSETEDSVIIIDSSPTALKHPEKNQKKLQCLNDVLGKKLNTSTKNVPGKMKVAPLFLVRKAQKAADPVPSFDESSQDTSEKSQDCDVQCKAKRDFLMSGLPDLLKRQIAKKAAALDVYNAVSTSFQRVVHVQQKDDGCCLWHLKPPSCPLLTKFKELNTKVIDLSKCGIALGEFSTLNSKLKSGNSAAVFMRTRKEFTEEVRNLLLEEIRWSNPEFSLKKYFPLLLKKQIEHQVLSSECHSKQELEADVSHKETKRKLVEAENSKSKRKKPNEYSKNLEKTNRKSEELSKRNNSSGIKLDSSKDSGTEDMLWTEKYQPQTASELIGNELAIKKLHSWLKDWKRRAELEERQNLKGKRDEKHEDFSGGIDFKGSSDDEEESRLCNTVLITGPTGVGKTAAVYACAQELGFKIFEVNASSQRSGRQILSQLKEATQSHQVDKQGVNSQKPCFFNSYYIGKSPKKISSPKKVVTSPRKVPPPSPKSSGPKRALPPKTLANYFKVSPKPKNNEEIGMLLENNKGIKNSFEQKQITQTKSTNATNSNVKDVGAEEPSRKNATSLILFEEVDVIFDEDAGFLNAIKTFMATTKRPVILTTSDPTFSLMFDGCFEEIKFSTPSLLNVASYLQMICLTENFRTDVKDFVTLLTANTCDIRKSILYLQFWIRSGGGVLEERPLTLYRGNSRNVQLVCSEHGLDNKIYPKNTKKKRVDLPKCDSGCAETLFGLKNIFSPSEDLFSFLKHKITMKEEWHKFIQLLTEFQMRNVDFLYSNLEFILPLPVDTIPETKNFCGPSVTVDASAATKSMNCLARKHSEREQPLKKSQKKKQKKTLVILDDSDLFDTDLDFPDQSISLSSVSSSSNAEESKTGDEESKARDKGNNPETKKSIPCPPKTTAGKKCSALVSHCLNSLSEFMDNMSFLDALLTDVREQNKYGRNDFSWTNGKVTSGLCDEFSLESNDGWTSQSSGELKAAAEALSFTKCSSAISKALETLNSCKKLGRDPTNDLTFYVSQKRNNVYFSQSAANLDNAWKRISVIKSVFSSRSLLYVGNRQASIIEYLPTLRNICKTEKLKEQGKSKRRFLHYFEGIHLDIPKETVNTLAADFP
UniProt O75175: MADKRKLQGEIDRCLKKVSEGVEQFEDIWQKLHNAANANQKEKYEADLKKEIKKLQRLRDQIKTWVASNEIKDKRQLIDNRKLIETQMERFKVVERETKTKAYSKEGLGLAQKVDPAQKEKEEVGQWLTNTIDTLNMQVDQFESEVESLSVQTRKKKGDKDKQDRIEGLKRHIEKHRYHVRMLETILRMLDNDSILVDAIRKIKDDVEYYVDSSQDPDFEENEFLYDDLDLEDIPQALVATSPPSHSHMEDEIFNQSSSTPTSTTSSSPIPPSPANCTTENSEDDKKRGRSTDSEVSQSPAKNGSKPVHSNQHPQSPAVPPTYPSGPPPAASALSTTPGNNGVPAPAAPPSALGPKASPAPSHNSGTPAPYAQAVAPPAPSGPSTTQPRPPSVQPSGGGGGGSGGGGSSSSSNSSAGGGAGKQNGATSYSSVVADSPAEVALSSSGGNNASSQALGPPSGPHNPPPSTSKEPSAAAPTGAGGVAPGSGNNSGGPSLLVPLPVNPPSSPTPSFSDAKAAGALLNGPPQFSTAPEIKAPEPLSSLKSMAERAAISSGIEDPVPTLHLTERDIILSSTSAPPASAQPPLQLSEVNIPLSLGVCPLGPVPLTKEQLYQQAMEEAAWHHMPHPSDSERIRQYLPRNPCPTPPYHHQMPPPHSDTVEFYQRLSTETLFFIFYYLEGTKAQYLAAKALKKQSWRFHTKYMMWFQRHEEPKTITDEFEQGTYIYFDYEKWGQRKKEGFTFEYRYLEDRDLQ
UniProt Q96F86: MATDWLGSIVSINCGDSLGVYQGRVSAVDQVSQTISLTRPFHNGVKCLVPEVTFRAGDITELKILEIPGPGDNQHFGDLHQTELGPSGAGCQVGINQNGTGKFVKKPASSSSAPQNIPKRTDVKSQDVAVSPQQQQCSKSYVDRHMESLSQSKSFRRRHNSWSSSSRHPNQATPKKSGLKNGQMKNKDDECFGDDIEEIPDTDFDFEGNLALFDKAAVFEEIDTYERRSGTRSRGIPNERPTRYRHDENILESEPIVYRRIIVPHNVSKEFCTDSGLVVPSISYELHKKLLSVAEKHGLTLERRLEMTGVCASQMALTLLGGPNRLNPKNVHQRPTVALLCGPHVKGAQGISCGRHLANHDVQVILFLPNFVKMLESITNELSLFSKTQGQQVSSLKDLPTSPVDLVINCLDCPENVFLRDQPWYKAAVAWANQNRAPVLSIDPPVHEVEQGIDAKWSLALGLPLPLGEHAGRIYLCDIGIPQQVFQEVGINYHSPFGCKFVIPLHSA
UniProt Q8IZH2: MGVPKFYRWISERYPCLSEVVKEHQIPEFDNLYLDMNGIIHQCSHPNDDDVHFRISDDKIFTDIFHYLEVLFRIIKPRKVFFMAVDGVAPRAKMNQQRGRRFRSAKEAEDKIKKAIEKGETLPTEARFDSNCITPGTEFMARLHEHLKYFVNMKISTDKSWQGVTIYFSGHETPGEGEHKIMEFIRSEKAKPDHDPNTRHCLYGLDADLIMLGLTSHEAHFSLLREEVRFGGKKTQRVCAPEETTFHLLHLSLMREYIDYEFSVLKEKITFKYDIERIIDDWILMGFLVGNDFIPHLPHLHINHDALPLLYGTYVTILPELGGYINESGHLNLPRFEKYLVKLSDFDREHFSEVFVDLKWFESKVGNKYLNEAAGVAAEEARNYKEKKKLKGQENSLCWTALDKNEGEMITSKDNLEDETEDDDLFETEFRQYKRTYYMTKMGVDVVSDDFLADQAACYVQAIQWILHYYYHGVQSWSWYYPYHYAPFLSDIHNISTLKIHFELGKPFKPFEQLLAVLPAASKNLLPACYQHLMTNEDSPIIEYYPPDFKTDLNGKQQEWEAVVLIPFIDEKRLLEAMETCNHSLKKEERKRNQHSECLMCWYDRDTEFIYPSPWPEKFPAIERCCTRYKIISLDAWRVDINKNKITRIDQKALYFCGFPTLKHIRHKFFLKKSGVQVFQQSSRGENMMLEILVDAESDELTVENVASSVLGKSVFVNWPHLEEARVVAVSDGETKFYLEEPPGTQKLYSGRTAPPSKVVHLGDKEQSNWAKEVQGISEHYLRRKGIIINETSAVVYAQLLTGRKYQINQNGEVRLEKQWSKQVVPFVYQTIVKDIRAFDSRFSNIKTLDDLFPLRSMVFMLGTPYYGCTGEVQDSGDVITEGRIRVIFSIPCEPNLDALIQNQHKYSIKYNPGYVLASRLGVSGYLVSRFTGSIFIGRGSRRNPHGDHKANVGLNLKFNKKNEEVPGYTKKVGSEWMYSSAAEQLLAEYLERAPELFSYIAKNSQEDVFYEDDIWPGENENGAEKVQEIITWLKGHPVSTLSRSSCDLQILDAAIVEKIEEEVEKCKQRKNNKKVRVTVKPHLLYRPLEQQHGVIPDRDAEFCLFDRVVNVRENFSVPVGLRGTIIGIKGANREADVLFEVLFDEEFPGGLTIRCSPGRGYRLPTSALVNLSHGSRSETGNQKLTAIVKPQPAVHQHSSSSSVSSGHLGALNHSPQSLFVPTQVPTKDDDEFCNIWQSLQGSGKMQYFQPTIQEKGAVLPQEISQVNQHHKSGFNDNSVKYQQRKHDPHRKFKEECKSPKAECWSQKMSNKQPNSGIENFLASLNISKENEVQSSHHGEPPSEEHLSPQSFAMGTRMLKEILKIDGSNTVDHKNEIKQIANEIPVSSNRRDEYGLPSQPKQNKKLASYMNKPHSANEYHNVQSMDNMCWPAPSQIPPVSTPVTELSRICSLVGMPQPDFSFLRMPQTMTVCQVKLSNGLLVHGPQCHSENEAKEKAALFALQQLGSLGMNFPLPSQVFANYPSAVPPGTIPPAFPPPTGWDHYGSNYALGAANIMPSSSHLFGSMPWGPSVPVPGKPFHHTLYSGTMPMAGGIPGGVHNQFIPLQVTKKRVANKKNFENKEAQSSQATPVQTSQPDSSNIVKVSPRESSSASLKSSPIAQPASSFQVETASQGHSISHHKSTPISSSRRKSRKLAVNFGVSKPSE

[2] = molecular target: T2, L1 WT-APX (ZFP36L1 WT fused N-terminally to APEX2) (mouse) (UniProt P23950); experiment: proximity labelling
T2 sequence: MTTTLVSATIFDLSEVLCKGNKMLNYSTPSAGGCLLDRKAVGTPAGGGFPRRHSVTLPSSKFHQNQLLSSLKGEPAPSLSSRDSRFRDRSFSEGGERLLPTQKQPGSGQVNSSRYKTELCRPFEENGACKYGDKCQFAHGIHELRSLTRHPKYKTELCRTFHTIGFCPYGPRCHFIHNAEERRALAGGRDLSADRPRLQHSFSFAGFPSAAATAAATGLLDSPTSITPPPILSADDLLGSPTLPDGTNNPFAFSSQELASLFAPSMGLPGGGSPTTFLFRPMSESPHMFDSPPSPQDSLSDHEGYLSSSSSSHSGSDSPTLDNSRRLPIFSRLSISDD

[3] = molecular target: L1 TZF^mut-APX (RNA binding-deficient ZFP36L1 TZF^mut fused N-terminally to APEX2) (mouse) (UniProt P23950); experiment: proximity labelling
[4] = molecular target: T1, WT-APX (murine wild-type TTP fused N-terminally to APEX2) (mouse); experiment: condition: only cells treated with anisomycin
[5] = molecular target: T3, TZF^mut-APX (RNA binding-deficient tandem zinc finger TTP mutant C116R/C139R fused N-terminally to APEX2) (mouse) (UniProt P22893); experiment: proximity labelling
T3 sequence: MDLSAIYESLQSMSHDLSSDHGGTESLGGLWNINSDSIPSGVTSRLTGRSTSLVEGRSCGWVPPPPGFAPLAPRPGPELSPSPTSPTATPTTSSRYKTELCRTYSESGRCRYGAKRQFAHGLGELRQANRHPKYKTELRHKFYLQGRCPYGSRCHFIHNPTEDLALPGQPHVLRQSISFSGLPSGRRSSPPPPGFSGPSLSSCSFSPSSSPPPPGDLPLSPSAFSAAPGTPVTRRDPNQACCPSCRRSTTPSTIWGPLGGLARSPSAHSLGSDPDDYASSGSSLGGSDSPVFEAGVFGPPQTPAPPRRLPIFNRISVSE

[6] = molecular target: T3, TZF^mut-APX (RNA binding-deficient tandem zinc finger TTP mutant C116R/C139R fused N-terminally to APEX2) (mouse); experiment: proximity labelling; remark: listed apart in the source
[7] = molecular target: T1, WT-APX (murine wild-type TTP fused N-terminally to APEX2) (mouse); experiment: proximity labelling; remark: listed apart in the source
[8] = molecular target: T1, WT-APX (murine wild-type TTP fused N-terminally to APEX2) (mouse); experiment: proximity labelling; remark: listed apart in the source
[9] = molecular target: T2, L1 WT-APX (ZFP36L1 WT fused N-terminally to APEX2) (mouse); experiment: proximity labelling; remark: listed apart in the source
[10] = molecular target: L1 TZF^mut-APX (RNA binding-deficient ZFP36L1 TZF^mut fused N-terminally to APEX2) (mouse) (UniProt P23950); experiment: proximity labelling; remark: listed apart in the source

binding [1]: binds
Molecule: ATAD5 (from UniProt Q96QE3 1-1844)

binding [2]: binds
binding [3]: no binding
Molecule: CNOT3 (from UniProt O75175 1-753)

binding [4]: no binding
binding [1]: binds
binding [5]: no binding
binding [6]: no binding
Molecule: DCP2 (from UniProt Q8IU60 1-420)

binding [4]: no binding
binding [2]: binds
binding [1]: binds
binding [3]: no binding
binding [7]: binds
Molecule: EDC3 (from UniProt Q96F86 1-508)

binding [4]: no binding
binding [1]: binds
binding [5]: no binding
binding [6]: no binding
Molecule: XRN1 exonuclease (from UniProt Q8IZH2 1-1706)

binding [8]: binds
B1: NFATC1 (protein, UniProt O95644 1-943)
chain: MPSTSFPVPSKFPLGPAAAVFGRGETLGPAPRAGGTMKSAEEEHYGYASSNVSPALPLPTAHSTLPAPCHNLQTSTPGIIPPADHPSGYGAALDGGPAGYFLSSGHTRPDGAPALESPRIEITSCLGLYHNNNQFFHDVEVEDVLPSSKRSPSTATLSLPSLEAYRDPSCLSPASSLSSRSCNSEASSYESNYSYPYASPQTSPWQSPCVSPKTTDPEEGFPRGLGACTLLGSPRHSPSTSPRASVTEESWLGARSSRPASPCNKRKYSLNGRQPPYSPHHSPTPSPHGSPRVSVTDDSWLGNTTQYTSSAIVAAINALTTDSSLDLGDGVPVKSRKTTLEQPPSVALKVEPVGEDLGSPPPPADFAPEDYSSFQHIRKGGFCDQYLAVPQHPYQWAKPKPLSPTSYMSPTLPALDWQLPSHSGPYELRIEVQPKSHHRAHYETEGSRGAVKASAGGHPIVQLHGYLENEPLMLQLFIGTADDRLLRPHAFYQVHRITGKTVSTTSHEAILSNTKVLEIPLLPENSMRAVIDCAGILKLRNSDIELRKGETDIGRKNTRVRLVFRVHVPQPSGRTLSLQVASNPIECSQRSAQELPLVEKQSTDSYPVVGGKKMVLSGHNFLQDSKVIFVEKAPDGHHVWEMEAKTDRDLCKPNSLVVEIPPFRNQRITSPVHVSFYVCNGKRKRSQYQRFTYLPANVPIIKTEPTDDYEPAPTCGPVSQGLSPLPRPYYSQQLAMPPDPSSCLVAGFPPCPQRSTLMPAAPGVSPKLHDLSPAAYTKGVASPGHCHLGLPQPAGEAPAVQDVPRPVATHPGSPGQPPPALLPQQVSAPPSSSCPPGLEHSLCPSSPSPPLPPATQEPTCLQPCSPACPPATGRPQHLPSTVRRDESPTAGPRLLPEVHEDGSPNLAPIPVTVKREPEELDQLYLDDVNEIIRNDLSSTSTHS

binding [9]: binds
binding [10]: no binding
B2: EDC4 (protein, UniProt Q6P2E9 1-1401)
chain: MASCASIDIEDATQHLRDILKLDRPAGGPSAESPRPSSAYNGDLNGLLVPDPLCSGDSTSANKTGLRTMPPINLQEKQVICLSGDDSSTCIGILAKEVEIVASSDSSISSKARGSNKVKIQPVAKYDWEQKYYYGNLIAVSNSFLAYAIRAANNGSAMVRVISVSTSERTLLKGFTGSVADLAFAHLNSPQLACLDEAGNLFVWRLALVNGKIQEEILVHIRQPEGTPLNHFRRIIWCPFIPEESEDCCEESSPTVALLHEDRAEVWDLDMLRSSHSTWPVDVSQIKQGFIVVKGHSTCLSEGALSPDGTVLATASHDGYVKFWQIYIEGQDEPRCLHEWKPHDGRPLSCLLFCDNHKKQDPDVPFWRFLITGADQNRELKMWCTVSWTCLQTIRFSPDIFSSVSVPPSLKVCLDLSAEYLILSDVQRKVLYVMELLQNQEEGHACFSSISEFLLTHPVLSFGIQVVSRCRLRHTEVLPAEEENDSLGADGTHGAGAMESAAGVLIKLFCVHTKALQDVQIRFQPQLNPDVVAPLPTHTAHEDFTFGESRPELGSEGLGSAAHGSQPDLRRIVELPAPADFLSLSSETKPKLMTPDAFMTPSASLQQITASPSSSSSGSSSSSSSSSSSLTAVSAMSSTSAVDPSLTRPPEELTLSPKLQLDGSLTMSSSGSLQASPRGLLPGLLPAPADKLTPKGPGQVPTATSALSLELQEVEPLGLPQASPSRTRSPDVISSASTALSQDIPEIASEALSRGFGSSAPEGLEPDSMASAASALHLLSPRPRPGPELGPQLGLDGGPGDGDRHNTPSLLEAALTQEASTPDSQVWPTAPDITRETCSTLAESPRNGLQEKHKSLAFHRPPYHLLQQRDSQDASAEQSDHDDEVASLASASGGFGTKVPAPRLPAKDWKTKGSPRTSPKLKRKSKKDDGDAAMGSRLTEHQVAEPPEDWPALIWQQQRELAELRHSQEELLQRLCTQLEGLQSTVTGHVERALETRHEQEQRRLERALAEGQQRGGQLQEQLTQQLSQALSSAVAGRLERSIRDEIKKTVPPCVSRSLEPMAGQLSNSVATKLTAVEGSMKENISKLLKSKNLTDAIARAAADTLQGPMQAAYREAFQSVVLPAFEKSCQAMFQQINDSFRLGTQEYLQQLESHMKSRKAREQEAREPVLAQLRGLVSTLQSATEQMAATVAGSVRAEVQHQLHVAVGSLQESILAQVQRIVKGEVSVALKEQQAAVTSSIMQAMRSAAGTPVPSAHLDCQAQQAHILQLLQQGHLNQAFQQALTAADLNLVLYVCETVDPAQVFGQPPCPLSQPVLLSLIQQLASDLGTRTDLKLSYLEEAVMHLDHSDPITRDHMGSVMAQVRQKLFQFLQAEPHNSLGKAARRLSLMLHGLVTPSLP

binding [8]: binds
B3: MAGEB2 (protein, UniProt O15479 1-319)
chain: MPRGQKSKLRAREKRRKARDETRGLNVPQVTEAEEEEAPCCSSSVSGGAASSSPAAGIPQEPQRAPTTAAAAAAGVSSTKSKKGAKSHQGEKNASSSQASTSTKSPSEDPLTRKSGSLVQFLLYKYKIKKSVTKGEMLKIVGKRFREHFPEILKKASEGLSVVFGLELNKVNPNGHTYTFIDKVDLTDEESLLSSWDFPRRKLLMPLLGVIFLNGNSATEEEIWEFLNMLGVYDGEEHSVFGEPWKLITKDLVQEKYLEYKQVPSSDPPRFQFLWGPRAYAETSKMKVLEFLAKVNGTTPCAFPTHYEEALKDEEKAGV
